PubChem BioAssay AID652272 – Drosophila RNAi Screening Center, 2013
Screen: 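Genes whose knock-down decreases or increases Hedgehog reporter output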 (primary screen). Cells: Drosophila clone 8 (Cl8) cells. Reagent: long dsRNA against Drosophila genes. Detection: 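Firefly light from a Hedgehog-responsive ptc promoter reporter and Renilla reference light, both read on a plate reader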. Reading the numbers: firefly Hh reporter signal: higher = more ptc reporter light; Renilla reference signal: higher = more Renilla control light. Call rule: 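Called a hit if the two-replicate mean z-score lies below -2 or above +3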. Meaning of the calls: active = hit: reporter lowered or raised; inactive = not a hit.
In all, the deposit lists about 21,000 reagents; shown is a random part of those with a known target gene and a result. In the full data, 503 (2.4%) got an active call. 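Raw plate light values, not normalised; calls rest on replicate z-scores that were not deposited; hits include reporter decreases as well as increases.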 Unmarked entries are inactive. Reagents against one gene are numbered here. Names joined by + are all predicted targets of the reagent. Not given: the amount of reagent, the time to read-out.

Gene | reagent | firefly Hh reporter signal, replicate 1 | firefly Hh reporter signal, replicate 2 | Renilla reference signal, replicate 1 | Renilla reference signal, replicate 2
CG13793 | 1 | 94050 | 52244 | 1555 | 5488
Phb1 (Prohibitin 1) | 1 | 61845 | 78506 | 2586 | 3513
CG3168 | 1 | 58282 | 44839 | 1831 | 1223
CG17325 + CG42305 | 1 | 1.12e5 | 64907 | 2935 | 6264
CG33012 | 1 | 73875 | 52182 | 2040 | 3778
CG33012 | 2 | 1.14e5 | 51466 | 2973 | 4509
Gem4b + Gem4c + Glos | 1 | 89852 | 1.76e5 | 3289 | 6214
Rpt3R (Regulatory particle triple-A ATPase 3-related) | 1 | 44480 | 74738 | 1403 | 2400
sub (subito) | 1 | 55706 | 54902 | 3536 | 2665
Khc-73 (Kinesin heavy chain 73) | 1 | 1.22e5 | 65520 | 5474 | 3308
tra (transformer) | 1 | 1.25e5 | – | 3672 | 3461
drk (downstream of receptor kinase) | 1 | 1.30e5 | 91730 | 4517 | 2704
CG13255 | 1 | 1.23e5 | 1.38e5 | 4371 | 3860
CG3565 | 1 | 75425 | 70025 | 3576 | 2971
w-cup (world cup) | 1 | 1.36e5 | 56646 | 3425 | 3480
Nep3 (Neprilysin 3) | 1 | 61700 | 1.97e5 | 1901 | 8592
LanA (Laminin A) | 1 | 81610 | 92208 | 3467 | 3218
cv-c (crossveinless c) | 1 | 68981 | 97401 | 2051 | 2804
cv-c (crossveinless c) | 2 | 1.15e5 | 1.37e5 | 3971 | 4061
cv-c (crossveinless c) | 3 | 55222 | 57269 | 2281 | 2012
cv-c (crossveinless c) | 4 | 1.03e5 | 1.06e5 | 3765 | 3053
cv-c (crossveinless c) | 5 | 1.20e5 | 99556 | 4728 | 3184
cv-c (crossveinless c) | 6 | 73961 | 99472 | 2329 | 2800

Already shown: entries from further up.
Gene | reagent | firefly Hh reporter signal, replicate 1 | firefly Hh reporter signal, replicate 2 | Renilla reference signal, replicate 1 | Renilla reference signal, replicate 2
sub (subito) | 1 | 55706 | 54902 | 3536 | 2665
Khc-73 (Kinesin heavy chain 73) | 1 | 1.22e5 | 65520 | 5474 | 3308
